Test results reported in publication PMC7450955.

Molecular target: APOL1-B3-FLAG (wild type, G0) (human)
Experiment: affinity purification with mass spectrometry; proteins coprecipitated with APOL1-B3-FLAG from APOL1-B3-FLAG stably transfected HeLa cells, analysed by mass spectrometry

binding: binds
B1: NLRP12 (endogenous, HeLa) (protein, UniProt P59046 1-1061)
chain: MLRTAGRDGLCRLSTYLEELEAVELKKFKLYLGTATELGEGKIPWGSMEKAGPLEMAQLLITHFGPEEAWRLALSTFERINRKDLWERGQREDLVRDTPPGGPSSLGNQSTCLLEVSLVTPRKDPQETYRDYVRRKFRLMEDRNARLGECVNLSHRYTRLLLVKEHSNPMQVQQQLLDTGRGHARTVGHQASPIKIETLFEPDEERPEPPRTVVMQGAAGIGKSMLAHKVMLDWADGKLFQGRFDYLFYINCREMNQSATECSMQDLIFSCWPEPSAPLQELIRVPERLLFIIDGFDELKPSFHDPQGPWCLCWEEKRPTELLLNSLIRKKLLPELSLLITTRPTALEKLHRLLEHPRHVEILGFSEAERKEYFYKYFHNAEQAGQVFNYVRDNEPLFTMCFVPLVCWVVCTCLQQQLEGGGLLRQTSRTTTAVYMLYLLSLMQPKPGAPRLQPPPNQRGLCSLAADGLWNQKILFEEQDLRKHGLDGEDVSAFLNMNIFQKDINCERYYSFIHLSFQEFFAAMYYILDEGEGGAGPDQDVTRLLTEYAFSERSFLALTSRFLFGLLNEETRSHLEKSLCWKVSPHIKMDLLQWIQSKAQSDGSTLQQGSLEFFSCLYEIQEEEFIQQALSHFQVIVVSNIASKMEHMVSSFCLKRCRSAQVLHLYGATYSADGEDRARCSAGAHTLLVQLPERTVLLDAYSEHLAAALCTNPNLIELSLYRNALGSRGVKLLCQGLRHPNCKLQNLRLKRCRISSSACEDLSAALIANKNLTRMDLSGNGVGFPGMMLLCEGLRHPQCRLQMIQLRKCQLESGACQEMASVLGTNPHLVELDLTGNALEDLGLRLLCQGLRHPVCRLRTLWLKICRLTAAACDELASTLSVNQSLRELDLSLNELGDLGVLLLCEGLRHPTCKLQTLRLGICRLGSAACEGLSVVLQANHNLRELDLSFNDLGDWGLWLLAEGLQHPACRLQKLWLDSCGLTAKACENLYFTLGINQTLTDLYLTNNALGDTGVRLLCKRLSHPGCKLRVLWLFGMDLNKMTHSRLAALRVTKPYLDIGC

No constants are given. Whether binding was seen depends on the method and setting. Binding seen in cells or lysates may run through a third protein. Here binding means that the protein was enriched with, or labelled near, the bait; the list need not be complete.
